Test results as given in the M2OR odorant receptor database.
The entries are a selection whose mix differs from that of the whole data set. Calls are pooled over several reports, among them a noisy single-well screen. The list shows a part of the results.

Tests used:
Conditions in all cases: stereoisomer not certain
[1] = target: T1, OR6K2 (Homo sapiens) (UniProt Q8NGY2)
T1 sequence (whole entry): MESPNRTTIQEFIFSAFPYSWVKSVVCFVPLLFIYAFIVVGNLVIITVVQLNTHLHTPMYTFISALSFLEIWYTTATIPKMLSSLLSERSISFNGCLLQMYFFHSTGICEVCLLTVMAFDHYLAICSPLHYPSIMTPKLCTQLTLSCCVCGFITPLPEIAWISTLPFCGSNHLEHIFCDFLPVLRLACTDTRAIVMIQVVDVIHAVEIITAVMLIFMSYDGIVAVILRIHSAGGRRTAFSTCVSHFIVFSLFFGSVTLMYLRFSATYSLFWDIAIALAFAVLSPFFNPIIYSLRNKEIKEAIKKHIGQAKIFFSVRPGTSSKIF
Procedure, shortened: (§1)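 Transient luciferase assays in mammalian cell lines were common, though methods varied by source. The values come from published papers and their supplementary material, with extra details from the original authors when needed. Responsive refers to a measured signal the original authors judged statistically different from baseline, and non-responsive (inactive) to the remainder.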

[2] = system: T2, OR6K3
T2 sequence (whole entry): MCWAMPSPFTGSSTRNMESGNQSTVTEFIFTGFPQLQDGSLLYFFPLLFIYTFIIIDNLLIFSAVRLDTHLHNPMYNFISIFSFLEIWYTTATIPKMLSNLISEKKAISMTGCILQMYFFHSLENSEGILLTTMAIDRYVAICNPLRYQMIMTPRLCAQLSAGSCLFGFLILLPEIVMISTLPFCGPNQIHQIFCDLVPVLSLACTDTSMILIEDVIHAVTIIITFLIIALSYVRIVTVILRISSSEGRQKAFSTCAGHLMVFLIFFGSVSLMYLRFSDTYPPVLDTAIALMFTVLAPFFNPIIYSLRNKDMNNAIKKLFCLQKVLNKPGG
Procedure, shortened: as §1

[3] = system: T3, OR6K3; remark: listed apart in the source
T3 sequence (whole entry): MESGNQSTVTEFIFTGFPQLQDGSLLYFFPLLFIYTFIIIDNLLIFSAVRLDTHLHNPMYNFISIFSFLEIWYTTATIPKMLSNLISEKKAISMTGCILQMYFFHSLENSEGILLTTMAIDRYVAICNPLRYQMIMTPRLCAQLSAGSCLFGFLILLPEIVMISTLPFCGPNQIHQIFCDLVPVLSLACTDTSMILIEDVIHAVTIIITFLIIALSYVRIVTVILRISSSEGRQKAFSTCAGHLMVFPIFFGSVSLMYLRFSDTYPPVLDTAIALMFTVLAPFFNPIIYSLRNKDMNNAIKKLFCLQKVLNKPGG
Procedure, shortened: as §1

[4] = system: T4, OR6K6
T4 sequence (whole entry): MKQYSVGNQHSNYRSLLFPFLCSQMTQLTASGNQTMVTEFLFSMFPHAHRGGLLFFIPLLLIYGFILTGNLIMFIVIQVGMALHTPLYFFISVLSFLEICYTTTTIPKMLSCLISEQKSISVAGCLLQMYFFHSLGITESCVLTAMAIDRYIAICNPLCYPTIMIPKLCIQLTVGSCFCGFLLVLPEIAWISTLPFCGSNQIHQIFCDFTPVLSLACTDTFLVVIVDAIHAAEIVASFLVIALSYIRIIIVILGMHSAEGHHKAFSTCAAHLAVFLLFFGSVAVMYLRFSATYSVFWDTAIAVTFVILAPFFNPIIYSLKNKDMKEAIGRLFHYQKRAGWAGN
Procedure, shortened: as §1

[5] = system: T5, OR6K6; remark: listed apart in the source
T5 sequence (whole entry): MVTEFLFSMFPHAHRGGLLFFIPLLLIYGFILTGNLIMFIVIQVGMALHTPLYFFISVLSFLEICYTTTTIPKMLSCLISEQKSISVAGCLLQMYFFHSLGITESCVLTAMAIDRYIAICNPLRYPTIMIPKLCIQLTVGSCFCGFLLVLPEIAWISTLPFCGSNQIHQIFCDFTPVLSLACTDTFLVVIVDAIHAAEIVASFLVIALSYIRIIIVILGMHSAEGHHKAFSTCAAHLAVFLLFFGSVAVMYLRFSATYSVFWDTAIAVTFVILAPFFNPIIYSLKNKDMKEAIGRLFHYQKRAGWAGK
Procedure, shortened: as §1

[6] = target: T6, OR6M1 (Homo sapiens) (UniProt Q8NGM8)
T6 sequence (whole entry): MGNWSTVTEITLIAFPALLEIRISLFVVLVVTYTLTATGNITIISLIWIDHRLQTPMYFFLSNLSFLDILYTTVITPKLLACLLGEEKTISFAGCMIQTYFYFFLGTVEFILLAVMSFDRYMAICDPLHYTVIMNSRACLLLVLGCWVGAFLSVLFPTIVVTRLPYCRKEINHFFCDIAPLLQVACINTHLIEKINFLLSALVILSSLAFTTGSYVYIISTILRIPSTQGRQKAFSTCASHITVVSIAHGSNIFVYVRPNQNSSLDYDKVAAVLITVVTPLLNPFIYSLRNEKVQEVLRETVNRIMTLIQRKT
Procedure, shortened: as §1

[7] = system: T7, OR6N1
T7 sequence (whole entry): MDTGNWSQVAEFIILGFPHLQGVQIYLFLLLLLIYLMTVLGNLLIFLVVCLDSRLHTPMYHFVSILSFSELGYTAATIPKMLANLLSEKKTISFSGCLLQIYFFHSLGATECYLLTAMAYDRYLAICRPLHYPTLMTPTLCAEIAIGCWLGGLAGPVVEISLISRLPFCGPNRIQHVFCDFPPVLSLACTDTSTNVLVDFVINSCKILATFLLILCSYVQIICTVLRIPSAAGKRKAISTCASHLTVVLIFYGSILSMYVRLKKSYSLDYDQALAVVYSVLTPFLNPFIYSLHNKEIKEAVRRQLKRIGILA
Procedure, shortened: as §1

[8] = target: T8, OR6N2 (Homo sapiens) (UniProt Q8NGY6)
T8 sequence (whole entry): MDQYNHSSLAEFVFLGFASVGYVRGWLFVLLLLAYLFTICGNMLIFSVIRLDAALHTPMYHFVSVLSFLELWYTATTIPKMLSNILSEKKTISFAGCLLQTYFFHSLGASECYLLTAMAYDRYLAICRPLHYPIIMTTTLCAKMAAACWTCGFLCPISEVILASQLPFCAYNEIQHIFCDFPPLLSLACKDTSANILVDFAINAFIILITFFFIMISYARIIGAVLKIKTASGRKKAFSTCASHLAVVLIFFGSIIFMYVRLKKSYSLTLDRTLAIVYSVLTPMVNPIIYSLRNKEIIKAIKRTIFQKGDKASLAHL
Procedure, shortened: as §1

[9] = target: T9, OR6P1 (Homo sapiens) (UniProt Q8NGX9)
T9 sequence (whole entry): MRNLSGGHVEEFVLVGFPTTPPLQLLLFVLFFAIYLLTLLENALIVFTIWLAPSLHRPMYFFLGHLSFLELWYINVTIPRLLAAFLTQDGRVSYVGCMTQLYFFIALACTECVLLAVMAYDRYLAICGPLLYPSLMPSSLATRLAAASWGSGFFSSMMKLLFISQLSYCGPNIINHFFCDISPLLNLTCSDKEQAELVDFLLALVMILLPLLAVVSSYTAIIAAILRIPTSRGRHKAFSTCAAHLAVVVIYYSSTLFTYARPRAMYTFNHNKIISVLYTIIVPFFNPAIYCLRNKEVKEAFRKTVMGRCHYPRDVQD
Procedure, shortened: as §1

[10] = target: T10, OR6Q1 (Homo sapiens) (UniProt Q8NGQ2)
T10 sequence (whole entry): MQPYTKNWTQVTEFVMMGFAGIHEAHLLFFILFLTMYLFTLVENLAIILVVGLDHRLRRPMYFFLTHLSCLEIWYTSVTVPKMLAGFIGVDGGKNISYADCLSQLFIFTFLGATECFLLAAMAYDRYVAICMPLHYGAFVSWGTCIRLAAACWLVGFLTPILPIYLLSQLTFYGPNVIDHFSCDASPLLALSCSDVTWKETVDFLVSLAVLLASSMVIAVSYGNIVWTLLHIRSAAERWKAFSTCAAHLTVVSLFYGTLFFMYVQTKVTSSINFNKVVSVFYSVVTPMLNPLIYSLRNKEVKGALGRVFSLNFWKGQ
Procedure, shortened: as §1

Measured: odorant receptor agonist call;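 also: active if original authors judged signal statistically different from baseline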

CCCCOC(C)=O
inactive: [1] | [2] | [3] | [4] | [5] | [6] | [7] | [8] | [9] | [10]

CCC(C)=O
inactive: [1] | [2] | [3] | [4] | [5] | [6] | [7] | [8] | [9] | [10]

CS
inactive: [1] | [2] | [3] | [4] | [5] | [6] | [7] | [8] | [9] | [10]
